Reference: PMC7156728

Columns and labels:
[1] = molecular target: T1, C-reactive protein (CRP) (human) (UniProt P02741); assay: pull-down; purified CRP (40 µg/ml) or vehicle added to human plasma of three donors, incubated with phosphorylcholine-agarose (PC-agarose) at 37 °C; washed with HBSS (Ca2+, Mg2+); bound proteins eluted in SDS buffer; Western blot; only the target purified
T1 sequence: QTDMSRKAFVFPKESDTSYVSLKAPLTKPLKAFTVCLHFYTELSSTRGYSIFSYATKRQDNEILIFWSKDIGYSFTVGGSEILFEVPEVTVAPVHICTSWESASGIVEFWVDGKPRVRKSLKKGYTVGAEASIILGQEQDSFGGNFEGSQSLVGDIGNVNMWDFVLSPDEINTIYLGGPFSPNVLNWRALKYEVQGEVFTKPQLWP

[2] = molecular target: T1, C-reactive protein (CRP) (human); assay: pull-down; purified CRP (40 µg/ml; 100 µg/ml in Fig. 1b) or vehicle added to human plasma (hirudin) or serum, incubated with MSU crystals at 37 °C; crystals washed with urate-saturated HBSS (Ca2+, Mg2+); bound proteins eluted in SDS buffer; Western blot; only the target purified

Row | binding [1] | binding [2] | Substance
1 | binds | binds | complement component C1r (human (endogenous in serum and plasma)) (enzyme)
2 | binds | binds | complement component C1s (human (endogenous in serum and plasma)) (enzyme)

No constants are given. Whether binding was seen depends on the method and setting. In cells and extracts the contact can be indirect. A result given as binding can be weak or reduced; the word gives no strength.
